Our source for the binding values is article PMC10796087.

By UniProt entry, the sequences of proteins in these tests, tags left out.
UniProt Q96KQ7: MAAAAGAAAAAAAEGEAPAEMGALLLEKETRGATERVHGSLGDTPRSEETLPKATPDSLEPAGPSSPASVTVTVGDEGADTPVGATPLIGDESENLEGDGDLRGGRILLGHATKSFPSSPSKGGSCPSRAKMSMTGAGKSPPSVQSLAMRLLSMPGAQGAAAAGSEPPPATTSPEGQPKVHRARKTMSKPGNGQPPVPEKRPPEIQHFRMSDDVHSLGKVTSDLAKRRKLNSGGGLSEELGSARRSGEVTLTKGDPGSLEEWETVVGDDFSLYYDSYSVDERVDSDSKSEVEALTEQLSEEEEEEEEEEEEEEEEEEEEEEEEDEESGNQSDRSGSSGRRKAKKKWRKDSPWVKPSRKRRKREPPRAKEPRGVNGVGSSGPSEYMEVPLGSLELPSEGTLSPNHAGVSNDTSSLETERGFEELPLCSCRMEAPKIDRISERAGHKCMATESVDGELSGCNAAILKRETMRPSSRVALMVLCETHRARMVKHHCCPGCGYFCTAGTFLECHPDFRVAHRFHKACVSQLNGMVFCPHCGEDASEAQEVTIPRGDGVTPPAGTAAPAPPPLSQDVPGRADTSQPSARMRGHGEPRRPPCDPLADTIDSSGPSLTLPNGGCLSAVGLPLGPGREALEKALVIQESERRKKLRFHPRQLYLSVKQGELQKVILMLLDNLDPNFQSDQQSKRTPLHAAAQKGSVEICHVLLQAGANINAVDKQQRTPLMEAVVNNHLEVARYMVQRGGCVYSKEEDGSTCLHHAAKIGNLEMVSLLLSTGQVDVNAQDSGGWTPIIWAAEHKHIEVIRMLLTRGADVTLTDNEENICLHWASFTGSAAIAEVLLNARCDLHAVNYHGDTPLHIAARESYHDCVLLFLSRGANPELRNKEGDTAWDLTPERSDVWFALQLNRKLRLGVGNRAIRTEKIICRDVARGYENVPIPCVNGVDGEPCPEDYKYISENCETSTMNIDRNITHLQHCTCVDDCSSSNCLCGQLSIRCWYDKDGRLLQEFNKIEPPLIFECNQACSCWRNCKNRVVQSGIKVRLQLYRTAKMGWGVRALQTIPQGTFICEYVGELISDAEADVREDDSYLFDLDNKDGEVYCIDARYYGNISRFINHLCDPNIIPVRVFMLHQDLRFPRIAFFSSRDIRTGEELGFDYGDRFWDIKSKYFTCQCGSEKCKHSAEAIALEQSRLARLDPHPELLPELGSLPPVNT
UniProt P60983: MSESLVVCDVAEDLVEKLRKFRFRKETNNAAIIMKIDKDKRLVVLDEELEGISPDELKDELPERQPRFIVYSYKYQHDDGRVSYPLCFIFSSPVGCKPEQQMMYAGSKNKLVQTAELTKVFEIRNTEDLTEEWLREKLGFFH

Results are given in words; binding and its absence hold for the method and conditions named. In cells and extracts the contact can be indirect. Some entries that bind do so weakly or less than the wild type.

The target in the experiment is Flag-tagged human G9a (human) (UniProt Q96KQ7). Nature of the experiment: co-IP; HEK 293T cells transfected with Flag-G9a or empty vector; lysed in IP buffer (25 mM tris-HCl pH 7.4, 150 mM NaCl, 5% glycerol, 1 mM EDTA, 1% NP-40); Flag resin, 4°C, 4 hours or overnight; western blot. (In general: A western blot detects proteins with antibodies after separation by electrophoresis.)

“glia maturation factor β (GMFB) (from UniProt P60983 1-142)”: the binding entry is recorded as “binds”.
